Assay [1] deals with Estrogen receptor alpha (ERα), endogenous protein in MCF-7 cells (human) (UniProt P03372). Put plainly: immunofluorescence, confocal microscopy of fixed MCF-7 cells.
Assay [2] shares this target. Description: immunofluorescence, confocal microscopy of fixed MCF-7 cells (legend of FIG. 20F).

Sequences of proteins named here, by UniProt entry; tags and fusion partners are left off.
UniProt P03372: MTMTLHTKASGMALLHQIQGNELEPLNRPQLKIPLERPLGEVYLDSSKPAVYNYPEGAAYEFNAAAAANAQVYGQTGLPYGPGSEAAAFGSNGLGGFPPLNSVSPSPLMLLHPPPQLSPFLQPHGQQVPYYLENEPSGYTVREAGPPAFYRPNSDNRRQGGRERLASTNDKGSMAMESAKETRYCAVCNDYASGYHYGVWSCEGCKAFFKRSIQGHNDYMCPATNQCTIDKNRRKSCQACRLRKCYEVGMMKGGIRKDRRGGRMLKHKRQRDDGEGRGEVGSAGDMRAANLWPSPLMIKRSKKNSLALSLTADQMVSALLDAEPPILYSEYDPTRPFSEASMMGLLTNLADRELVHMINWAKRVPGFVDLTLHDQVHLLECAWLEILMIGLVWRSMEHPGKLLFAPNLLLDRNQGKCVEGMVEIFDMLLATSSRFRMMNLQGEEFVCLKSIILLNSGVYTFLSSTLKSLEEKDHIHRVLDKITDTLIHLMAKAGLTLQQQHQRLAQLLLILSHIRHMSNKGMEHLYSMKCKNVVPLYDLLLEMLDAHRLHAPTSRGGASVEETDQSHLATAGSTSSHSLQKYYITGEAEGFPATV

No constants are given. Whether binding was seen depends on the method and setting. Some entries that bind do so weakly or less than the wild type.

B1: LMTK3 (lemur tyrosine kinase 3), endogenous protein in MCF-7 cells and in breast cancer tissue (enzyme, human, UniProt Q96Q04 21-1460, looked up)
chain: SPAHPDGFALGRAPLAPPYAVVLISCSGLLAFIFLLLTCLCCKRGDVGFKEFENPEGEDCSGEYTPPAEETSSSQSLPDVYILPLAEVSLPMPAPQPSHSDMTTPLGLSRQHLSYLQEIGSGWFGKVILGEIFSDYTPAQVVVKELRASAGPLEQRKFISEAQPYRSLQHPNVLQCLGLCVETLPFLLIMEFCQLGDLKRYLRAQRPPEGLSPELPPRDLRTLQRMGLEIARGLAHLHSHNYVHSDLALRNCLLTSDLTVRIGDYGLAHSNYKEDYYLTPERLWIPLRWAAPELLGELHGTFMVVDQSRESNIWSLGVTLWELFEFGAQPYRHLSDEEVLAFVVRQQHVKLARPRLKLPYADYWYDILQSCWRPPAQRPSASDLQLQLTYLLSERPPRPPPPPPPPRDGPFPWPWPPAHSAPRPGTLSSPFPLLDGFPGADPDDVLTVTESSRGLNLECLWEKARRGAGRGGGAPAWQPASAPPAPHANPSNPFYEALSTPSVLPVISARSPSVSSEYYIRLEEHGSPPEPLFPNDWDPLDPGVPAPQAPQAPSEVPQLVSETWASPLFPAPRPFPAQSSASGSFLLSGWDPEGRGAGETLAGDPAEVLGERGTAPWVEEEEEEEEGSSPGEDSSSLGGGPSRRGPLPCPLCSREGACSCLPLERGDAVAGWGGHPALGCPHPPEDDSSLRAERGSLADLPMAPPASAPPEFLDPLMGAAAPQYPGRGPPPAPPPPPPPPRAPADPAASPDPPSAVASPGSGLSSPGPKPGDSGYETETPFSPEGAFPGGGAAEEEGVPRPRAPPEPPDPGAPRPPPDPGPLPLPGPREKPTFVVQVSTEQLLMSLREDVTRNLLGEKGATARETGPRKAGRGPGNREKVPGLNRDPTVLGNGKQAPSLSLPVNGVTVLENGDQRAPGIEEKAAENGALGSPEREEKVLENGELTPPRREEKALENGELRSPEAGEKVLVNGGLTPPKSEDKVSENGGLRFPRNTERPPETGPWRAPGPWEKTPESWGPAPTIGEPAPETSLERAPAPSAVVSSRNGGETAPGPLGPAPKNGTLEPGTERRAPETGGAPRAPGAGRLDLGSGGRAPVGTGTAPGGGPGSGVDAKAGWVDNTRPQPPPPPLPPPPEAQPRRLEPAPPRARPEVAPEGEPGAPDSRAGGDTALSGDGDPPKPERKGPEMPRLFLDLGPPQGNSEQIKARLSRLSLALPPLTLTPFPGPGPRRPPWEGADAGAAGGEAGGAGAPGPAEEDGEDEDEDEEEDEEAAAPGAAAGPRGPGRARAAPVPVVVSSADADAARPLRGLLKSPRGADEPEDSELERKRKMVSFHGDVTVYLFDQETPTNELSVQAPPEGDTDPSTPPAPPTPPHPATPGDGFPSNDSGFGGSFEWAEDFPLLPPPGPPLCFSRFSVSPALETPGPPARAPDARPAGPVEN
Turning to B1, the binding entry in assay [1] and in assay [2] was “binds” throughout.

For the origin of these results see patent publication US20160356775A1.
